According to publication PMC9578791:
No constants are given. Whether binding was seen depends on the method and setting. Binding seen in cells or lysates may run through a third protein. A yes stands for co-enrichment or nearness to the bait. Other partners may have been found. One block for each molecule: values may come before it.

By UniProt entry, the sequences of proteins in these tests, tags left out.
UniProt P21333: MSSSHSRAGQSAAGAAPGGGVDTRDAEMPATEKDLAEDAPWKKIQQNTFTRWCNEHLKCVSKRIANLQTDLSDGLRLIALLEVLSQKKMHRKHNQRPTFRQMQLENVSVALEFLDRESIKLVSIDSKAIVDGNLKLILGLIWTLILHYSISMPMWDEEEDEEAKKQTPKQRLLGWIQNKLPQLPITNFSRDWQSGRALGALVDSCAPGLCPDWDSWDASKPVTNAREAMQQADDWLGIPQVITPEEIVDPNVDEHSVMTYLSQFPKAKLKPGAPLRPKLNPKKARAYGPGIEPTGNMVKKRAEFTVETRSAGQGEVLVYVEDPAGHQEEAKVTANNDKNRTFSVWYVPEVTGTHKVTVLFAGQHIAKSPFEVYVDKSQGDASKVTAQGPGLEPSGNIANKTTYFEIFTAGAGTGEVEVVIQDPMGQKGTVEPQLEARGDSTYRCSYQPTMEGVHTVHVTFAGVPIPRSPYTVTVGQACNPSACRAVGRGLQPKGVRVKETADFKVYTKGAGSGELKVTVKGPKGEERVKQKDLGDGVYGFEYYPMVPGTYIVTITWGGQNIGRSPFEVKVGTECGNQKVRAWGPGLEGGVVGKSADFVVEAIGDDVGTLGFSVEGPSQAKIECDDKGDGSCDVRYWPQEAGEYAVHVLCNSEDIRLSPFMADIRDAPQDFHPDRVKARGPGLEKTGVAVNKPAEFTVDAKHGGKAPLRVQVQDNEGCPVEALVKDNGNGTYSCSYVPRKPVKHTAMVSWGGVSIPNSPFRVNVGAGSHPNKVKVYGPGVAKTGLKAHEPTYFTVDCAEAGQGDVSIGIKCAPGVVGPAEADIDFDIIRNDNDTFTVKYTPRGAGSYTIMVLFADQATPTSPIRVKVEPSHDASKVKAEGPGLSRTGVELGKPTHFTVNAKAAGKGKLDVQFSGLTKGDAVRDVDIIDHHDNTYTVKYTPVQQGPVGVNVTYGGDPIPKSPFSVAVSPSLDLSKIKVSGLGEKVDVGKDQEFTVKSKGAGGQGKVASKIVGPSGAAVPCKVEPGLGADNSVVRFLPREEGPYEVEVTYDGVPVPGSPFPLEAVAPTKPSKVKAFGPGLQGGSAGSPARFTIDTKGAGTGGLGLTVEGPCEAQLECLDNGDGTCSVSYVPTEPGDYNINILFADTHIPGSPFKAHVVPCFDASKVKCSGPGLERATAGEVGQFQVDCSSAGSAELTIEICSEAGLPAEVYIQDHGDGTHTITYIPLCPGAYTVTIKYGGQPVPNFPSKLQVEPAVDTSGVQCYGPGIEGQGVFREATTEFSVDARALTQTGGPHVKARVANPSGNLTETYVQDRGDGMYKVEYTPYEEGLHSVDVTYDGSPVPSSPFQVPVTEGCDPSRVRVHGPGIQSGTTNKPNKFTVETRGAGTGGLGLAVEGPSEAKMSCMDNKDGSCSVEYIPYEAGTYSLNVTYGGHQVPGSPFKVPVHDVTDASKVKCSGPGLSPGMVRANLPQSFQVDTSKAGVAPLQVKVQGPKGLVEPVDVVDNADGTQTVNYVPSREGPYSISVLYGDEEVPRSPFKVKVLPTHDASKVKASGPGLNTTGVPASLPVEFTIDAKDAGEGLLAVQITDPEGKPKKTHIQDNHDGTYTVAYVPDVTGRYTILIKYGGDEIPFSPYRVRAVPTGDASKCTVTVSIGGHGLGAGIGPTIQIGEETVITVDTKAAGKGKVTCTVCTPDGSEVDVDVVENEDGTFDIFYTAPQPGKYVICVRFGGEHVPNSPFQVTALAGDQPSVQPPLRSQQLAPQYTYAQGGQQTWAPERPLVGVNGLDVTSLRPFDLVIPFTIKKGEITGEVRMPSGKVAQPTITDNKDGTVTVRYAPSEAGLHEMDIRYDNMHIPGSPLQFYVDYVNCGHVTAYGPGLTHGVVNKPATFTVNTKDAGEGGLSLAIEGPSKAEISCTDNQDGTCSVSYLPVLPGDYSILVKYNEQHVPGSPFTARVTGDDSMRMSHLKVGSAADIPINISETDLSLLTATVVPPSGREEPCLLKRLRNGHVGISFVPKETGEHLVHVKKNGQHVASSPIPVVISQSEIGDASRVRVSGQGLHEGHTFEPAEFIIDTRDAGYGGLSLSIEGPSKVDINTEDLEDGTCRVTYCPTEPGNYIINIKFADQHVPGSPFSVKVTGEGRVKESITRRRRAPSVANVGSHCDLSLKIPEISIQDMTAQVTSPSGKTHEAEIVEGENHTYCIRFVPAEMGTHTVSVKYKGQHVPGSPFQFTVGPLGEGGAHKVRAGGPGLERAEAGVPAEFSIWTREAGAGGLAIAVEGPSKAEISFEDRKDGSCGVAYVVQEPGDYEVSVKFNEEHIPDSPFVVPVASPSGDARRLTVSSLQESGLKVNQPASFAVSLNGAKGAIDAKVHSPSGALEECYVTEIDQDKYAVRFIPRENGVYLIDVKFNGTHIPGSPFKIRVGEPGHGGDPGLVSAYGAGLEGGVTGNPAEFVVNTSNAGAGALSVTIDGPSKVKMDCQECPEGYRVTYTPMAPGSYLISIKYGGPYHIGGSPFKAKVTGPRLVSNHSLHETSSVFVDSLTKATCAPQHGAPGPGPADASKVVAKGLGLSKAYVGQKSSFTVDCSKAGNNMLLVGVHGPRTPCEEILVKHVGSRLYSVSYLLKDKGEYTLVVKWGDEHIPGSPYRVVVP

Target: T1, thyroid hormone receptor interactor 13 (TRIP13) (UniProt Q15645)
T1 sequence: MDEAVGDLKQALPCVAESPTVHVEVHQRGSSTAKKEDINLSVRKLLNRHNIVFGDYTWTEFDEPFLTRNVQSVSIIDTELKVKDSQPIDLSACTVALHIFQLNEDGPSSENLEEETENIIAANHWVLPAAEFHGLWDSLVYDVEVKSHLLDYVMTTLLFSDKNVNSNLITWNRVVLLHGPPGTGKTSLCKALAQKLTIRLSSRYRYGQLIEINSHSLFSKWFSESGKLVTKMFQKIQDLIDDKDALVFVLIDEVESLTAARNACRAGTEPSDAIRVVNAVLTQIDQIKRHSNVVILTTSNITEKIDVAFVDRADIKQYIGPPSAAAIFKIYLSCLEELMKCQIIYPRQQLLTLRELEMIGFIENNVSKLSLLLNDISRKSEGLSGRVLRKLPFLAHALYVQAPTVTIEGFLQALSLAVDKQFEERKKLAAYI
Experiment: affinity purification with mass spectrometry; IP from lysates of A2058-control and TRIP13-overexpressing A2058 cells; primary antibody and protein A/G beads, 4°C for 4 h; LC-MS/MS (EASY-nLC 1200, MaxQuant)

binding: binds
Molecule: filamin A (FLNA) (from UniProt P21333 1-2647)

binding: binds
B1: DDX46 (protein, UniProt Q7L014 1-1031)
chain: MGRESRHYRKRSASRGRSGSRSRSRSPSDKRSKRGDDRRSRSRDRDRRRERSRSRDKRRSRSRDRKRLRRSRSRERDRSRERRRSRSRDRRRSRSRSRGRRSRSSSPGNKSKKTENRSRSKEKTDGGESSKEKKKDKDDKEDEKEKDAGNFDQNKLEEEMRKRKERVEKWREEQRKKAMENIGELKKEIEEMKQGKKWSLEDDDDDEDDPAEAEKEGNEMEGEELDPLDAYMEEVKEEVKKFNMRSVKGGGGNEKKSGPTVTKVVTVVTTKKAVVDSDKKKGELMENDQDAMEYSSEEEEVDLQTALTGYQTKQRKLLEPVDHGKIEYEPFRKNFYVEVPELAKMSQEEVNVFRLEMEGITVKGKGCPKPIKSWVQCGISMKILNSLKKHGYEKPTPIQTQAIPAIMSGRDLIGIAKTGSGKTIAFLLPMFRHIMDQRSLEEGEGPIAVIMTPTRELALQITKECKKFSKTLGLRVVCVYGGTGISEQIAELKRGAEIIVCTPGRMIDMLAANSGRVTNLRRVTYVVLDEADRMFDMGFEPQVMRIVDNVRPDRQTVMFSATFPRAMEALARRILSKPIEVQVGGRSVVCSDVEQQVIVIEEEKKFLKLLELLGHYQESGSVIIFVDKQEHADGLLKDLMRASYPCMSLHGGIDQYDRDSIINDFKNGTCKLLVATSVAARGLDVKHLILVVNYSCPNHYEDYVHRAGRTGRAGNKGYAYTFITEDQARYAGDIIKALELSGTAVPPDLEKLWSDFKDQQKAEGKIIKKSSGFSGKGFKFDETEQALANERKKLQKAALGLQDSDDEDAAVDIDEQIESMFNSKKRVKDMAAPGTSSVPAPTAGNAEKLEIAKRLALRINAQKNLGIESQDVMQQATNAILRGGTILAPTVSAKTIAEQLAEKINAKLNYVPLEKQEEERQDGGQNESFKRYEEELEINDFPQTARWKVTSKEALQRISEYSEAAITIRGTYFPPGKEPKEGERKIYLAIESANELAVQKAKAEITRLIKEELIRLQNSYQPTNKGRYKVL
